Test results published in the supplement of paper PMC12889115.
The other results are listed elsewhere or left out. Values are raw readings; no control value is given beside them.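 Primary screen: polymyxin B was added at a level permeabilizing Salmonella outer membranes while sparing inner membranes. DMSO wells, both with and without polymyxin B, established maximum growth. Plate-to-plate variation meant each plate was ranked on its own, and the lowest-OD600 compounds were selected as hits.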

Tested on: Salmonella enterica serovar Typhimurium SL1344
Test: bacterial growth OD600 after 18 h with compound and polymyxin B; higher = more bacterial growth (less inhibition)
Settings: 50 µM, Mueller-Hinton broth

Structure (SMILES)	bacterial growth OD600 (polymyxin B 0.75 µg/mL)	bacterial growth OD600 (polymyxin B 1 µg/mL)
OCC1(Cc2ccc(F)cc2)CCCN(Cc2ccc(-n3cccn3)cc2)C1 (stereo unspecified)	0.734	–
CSCC(=O)N1CCCC(Nc2ccc(C(C)C)cc2)C1 (stereo unspecified)	–	1.01
O=C(Nc1cccc(-c2cccc(Cl)c2)c1)C1CCN(C(=O)Cn2cccn2)CC1	–	0.641
Cc1ccn(CC(=O)N(CC2CCN(Cc3ccccc3F)CC2)CC2CCCO2)n1 (stereo unspecified)	0.977	–
Cc1nonc1C1CCCN1c1ccc(-c2nc(C(C)C)no2)cn1 (stereo unspecified)	–	0.869
COc1ccc(/C=C/CN2CCCC(CO)(Cc3ccccc3F)C2)cc1 (stereo unspecified)	0.859	–
Cc1nc2ccccc2n1Cc1cc(C(=O)NCC(C)(C)CN(C)C)no1	0.835	–
COc1cc(CC2(CCC(=O)N3CCC(c4ccc(F)cc4)C3)CCC(=O)N2)ccc1F (stereo unspecified)	0.79	–
CN(Cc1ccc(-n2cccn2)cc1)C(=O)c1cn(C2CC2)cc(C(=O)NC2CCCCC2)c1=O	0.762	–
COC(=O)[C@]1(C)C[C@H](C(=O)NCCSC)[C@H](c2ccccc2Cl)N1C	0.696	–
Cc1ccc(-n2cccn2)c([C@@H]2C[C@H]3CN(C4CCCC4)C(=O)[C@]34CCCN24)c1	–	0.001
O=C(CCC1CCCN(Cc2ccc3c(c2)OCCO3)C1)Nc1ccccc1F (stereo unspecified)	–	0.947
COc1ccccc1C(=O)N[C@@H]1c2ccccc2C2(CCN(C(=O)c3cccc(C)n3)CC2)[C@H]1OC	0.861	–
Cc1cc(OCc2cc(C(=O)N(C)Cc3cnccn3)no2)cc(C)c1Cl	–	0.891
O=C(c1cnccn1)N1CCCC(CCc2ccccc2)C1 (stereo unspecified)	0.92	–
Cc1nn(C)c(C)c1C(C)NC(=O)c1ccc(OC2CCN(C(=O)C3CC3)CC2)cc1 (stereo unspecified)	–	0.931

Structure (SMILES)	bacterial growth OD600 (polymyxin B 0.75 µg/mL)	bacterial growth OD600 (polymyxin B 1 µg/mL)
COCC1CCN(C(=O)c2cc(Cn3cnc4ccccc43)[nH]n2)CC1	–	1.24
Cc1ccc(C)c(-n2cc(CN3CCC(O)CC3)c(-c3ccccc3)n2)c1	–	0.873
Cc1cccnc1CN1CCN(C(=O)c2cn(CCC3CCCCC3)nn2)CC1	–	0.835
CCOC(=O)CCNc1ccc(-c2nc(Cc3ccccc3)no2)cn1	0.432	–
Cc1nc(CC(=O)N(Cc2ccncc2)Cc2cccc(OCCc3ccc(F)cc3)c2)cs1	-0.001	–
COc1ccc(CCN2CCCC(CN(C)Cc3cc(OC)c(O)cc3Cl)C2)cc1 (stereo unspecified)	0.834	–
Fc1cccc(CN2CCC(C3CCN(CCCn4cccn4)C3)CC2)c1F (stereo unspecified)	0.761	–
C=CCCC(=O)N1CCCC(Nc2ccc(F)c(F)c2)C1 (stereo unspecified)	–	0.888
Cc1ccc2c(c1)CN(C(=O)c1ccc(N3CCOCC3)cc1)CC(c1ccsc1)O2 (stereo unspecified)	0.004	–
Cc1cc(C(=O)N2CCC3(CCCN(CCC4CCCCC4)C3)C2)nn1C (stereo unspecified)	–	0.897
O=C(c1ccoc1)N1CCC2(CCCN(Cc3ccc(F)cc3)C2=O)C1 (stereo unspecified)	–	0.934
CCn1cc(C(=O)N2CCCC(C(=O)c3ccc4c5c(cccc35)CC4)C2)cn1 (stereo unspecified)	–	0.566
COc1ccc(-c2nn(-c3ccccc3)cc2CNC(C)Cn2cncn2)c(F)c1 (stereo unspecified)	–	0.771
CC(C)c1nccn1Cc1cc(C(=O)NCc2cc(F)ccc2F)n[nH]1	0.965	–
COc1ccc(CC2(CCC(=O)NCc3cccc(C(F)(F)F)c3)CCC(=O)N2)cc1OC (stereo unspecified)	0.753	–

Given bar-delimited: entries from further up
Structure (SMILES) | bacterial growth OD600 (polymyxin B 0.75 µg/mL) | bacterial growth OD600 (polymyxin B 1 µg/mL)
O=C(Nc1cccc(-c2cccc(Cl)c2)c1)C1CCN(C(=O)Cn2cccn2)CC1 | – | 0.641
Cc1ccn(CC(=O)N(CC2CCN(Cc3ccccc3F)CC2)CC2CCCO2)n1 (stereo unspecified) | 0.977 | –
Cc1nonc1C1CCCN1c1ccc(-c2nc(C(C)C)no2)cn1 (stereo unspecified) | – | 0.869
COc1ccc(/C=C/CN2CCCC(CO)(Cc3ccccc3F)C2)cc1 (stereo unspecified) | 0.859 | –
Cc1nc2ccccc2n1Cc1cc(C(=O)NCC(C)(C)CN(C)C)no1 | 0.835 | –
